Results taken from the supplement of paper PMC8104966.
The other results are listed elsewhere or left out. This data set is noisy: repeats of one test often differ as much as different tests do.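 U2OS cells expressing ACE2 were combined with U2OS cells expressing full-length spike, and imaging quantified fusion as the fraction of nuclei displaying both cell types' fluorescent markers. Non-toxic compounds with a fusion z-score under -3, i.e., over three standard deviations below the plate's DMSO wells, are called inhibitory hits.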

The molecules below were run on U2OS ACE2 x SARS-CoV-2 spike co-culture (assay: cell-cell fusion (fraction fused) z-score vs plate DMSO control; higher = more fusion). Conditions: 30 µM; 5 h; toxicity class: non-toxic, passed QC.

| SMILES | cell-cell fusion (z-score) |
| --- | --- |
| COc1cc(C(=O)NC(=S)Nc2cccc(NC(=O)c3ccccc3)c2)cc(OC)c1OC | inactive: 1.66 |
| O=c1c(O)c(-c2ccc(O)c(O)c2)oc2cc(O)cc(O)c12 | inactive: 1.73 |
| Cc1cn([C@H]2C[C@H](N=[N+]=[N-])[C@@H](CO)O2)c(=O)[nH]c1=O [Zidovudine] | inactive: 2.69 |
| CC(=O)N[C@@H]1[C@@H](C(O)[C@H](O)CO)O[C@](O)(C(=O)O)C[C@@H]1O (some centres undefined) | inactive: 1.92 |
| CN(C)CCc1c[nH]c2ccc(CS(=O)(=O)N3CCCC3)cc12 | inactive: 0.082 |
| CCCn1c(=O)c2[nH]c(C3CCCC3)nc2n(CCCOC(=O)c2ccc(S(=O)(=O)F)cc2)c1=O | inactive: 1.86 |
| O.O=CN(O)CCCP(=O)(O)O.[Na] [Fosmidomycin sodium salt hydrate] | inactive: 2.73 |
| Cl.NC(N)=NC(=O)Cc1c(Cl)cccc1Cl | inactive: 2.13 |
| CCc1cc2c(cc1N1CCC(N3CCOCC3)CC1)C(C)(C)c1[nH]c3cc(C#N)ccc3c1C2=O | inactive: 0.044 |
| CN(C)CCC=C1c2ccccc2CCc2ccccc21.Cl [Amitriptyline hydrochloride] | inactive: 1.86 |
| CN(C)CCC=C1c2ccccc2CCc2ccccc21.Cl | inactive: 0.116 |
| COC(=O)[C@@H]1OC(=O)C2OC23[C@@]1(C)CCC1[C@]2(C)C(C[C@@H](O)[C@]13C)C(C)(C)[C@H](OC(C)=O)C[C@@H]2OC(C)=O (some centres undefined) | inactive: 1.91 |
| COc1cc(Nc2ncc3c(n2)-c2ccc(Cl)cc2C(c2c(F)cccc2OC)=NC3)ccc1C(=O)O [MLN8237 (Alisertib)] | inactive: 2.29 |
| COc1cc(Nc2ncc3c(n2)-c2ccc(Cl)cc2C(c2c(F)cccc2OC)=NC3)ccc1C(=O)O [Alisertib (MLN8237)] | inactive: 0.41 |
| C[C@]12C=CC(=O)C=C1CC[C@@H]1[C@@H]2C(=O)C[C@@]2(C)[C@H]1CC[C@]2(O)C(=O)CO [Prednisone] | inactive: 2 |
| O=[N+]([O-])c1cc([As](=O)(O)O)ccc1O | inactive: 2.2 |
| Cc1nccnc1N1CCCCC1.O=S(=O)(O)O | inactive: 2.22 |
| COc1cc(OC)c2c(=O)c(-c3ccc4c(c3)OCO4)coc2c1 | inactive: 2.31 |
| N#CC(C#N)=Cc1ccc(O)c(O)c1 [Tyrphostin 23] | inactive: 1.47 |
| CCNC(=O)CCC/C=C\C[C@@H]1[C@@H](/C=C/[C@@H](O)CCc2ccccc2)[C@H](O)C[C@@H]1O [Bimatoprost] | inactive: 2.03 |
| CCN(CC)CCNC(=O)COc1ccc(OC)cc1.Cl | inactive: 1.76 |
| COC1(C)CCC2OC2(C)CCC2C1CC2(C)C (centres undefined) | inactive: 2.11 |
| CCCN1CCC[C@@H](c2cccc(O)c2)C1.Cl [S(-)-3PPP hydrochloride] | inactive: 1.59 |
| COC(=O)C(c1ccccc1Cl)N1CCc2sccc2C1.O=S(=O)(O)O (racemic) [(±) Clopidogrel hydrogen sulfate] | inactive: 3.39 |
| Cc1cccc(N(C)C(=S)Oc2ccc3ccccc3c2)c1 | inactive: 1.26 |

| SMILES | cell-cell fusion (z-score) |
| --- | --- |
| CC1=CCC[C@@H]2C1(C)CCC(C)[C@@]2(C)CC/C(C)=C/Cn1c[n+](C)c2c(N)ncnc21.[Cl-] (some centres undefined) | inactive: 0.83 |
| O=C(NOC[C@H](O)CO)c1ccc(F)c(F)c1Nc1ccc(I)cc1F | inactive: 1.08 |
| CO/N=C(\C(=O)N[C@@H]1C(=O)N2C(C(=O)[O-])=C(COC(C)=O)CS[C@H]12)c1csc(N)n1.[Na+] [Cefotaxime sodium] | inactive: 1.46 |
| [Cl-].CN(C)c1ccc2nc3cc\c(cc3sc2c1)=[N+](/C)C [Methylene Blue] | inactive: 1.41 |
| C[C@]12C/C(=C/O)C(=O)C[C@@H]1CC[C@@H]1[C@@H]2CC[C@@]2(C)[C@H]1CC[C@]2(C)O [Oxymetholone] | inactive: 2.2 |
| CCc1cc2c(cc1CC)CC(NC[C@H](O)c1ccc(O)c3[nH]c(=O)ccc13)C2.O=C(O)/C=C\C(=O)O [Indacaterol maleate] | active: -9.31 |
| CCCCCCCCCCCCCCCCOP(=O)([O-])OCC[N+](C)(C)C | active: -6.48 |
| CCCCOC(=O)NS(=O)(=O)c1sc(CC(C)C)cc1-c1ccc(Cn2c(CC)nc3c(C)cc(C)nc32)cc1 | active: -3.02 |
| c1ccc(-c2cnn3cc(-c4ccc(OCCN5CCOCC5)cc4)cnc23)cc1 | inactive: 1.73 |
| Nc1ncn([C@@H]2O[C@H](CO)[C@@H](O)[C@H]2O)c(=O)n1 [5-azacytidine] | inactive: 3.15 |
| Nc1ncn([C@@H]2O[C@H](CO)[C@@H](O)[C@H]2O)c(=O)n1 | inactive: 2.13 |
| CCCCCCCC/C=C\CCCCCCCC(=O)NCCO [N-Oleoylethanolamine] | inactive: 1.63 |
| CCOC(=O)N1CCN(/[N+]([O-])=N/Oc2ccc([N+](=O)[O-])cc2[N+](=O)[O-])CC1 | inactive: 2.72 |
| O=c1cc(-c2ccccc2O)oc2cc(O)ccc12 | inactive: 1.54 |
| CCn1c(=O)[nH]c2cc(Cl)c(Cl)cc21 | inactive: -2.68 |
| Clc1ccc(C(c2ccccc2Cl)C(Cl)Cl)cc1 (centres undefined) [1-(2-Chlorophenyl)-1-(4-chlorophenyl)-2,2-dichloroethane] | inactive: 2.13 |
| CCC(=O)NCC[C@@H]1CCc2ccc3c(c21)CCO3 [Ramelteon] | inactive: 2.49 |
| Oc1ccc(OCc2ccccc2)cc1 | inactive: 2.02 |
| CN(Cc1cnc2nc(N)nc(N)c2n1)c1ccc(C(=O)N[C@@H](CCC(=O)O)C(=O)O)cc1 [Methotrexate hydrate] | inactive: 2.66 |
| C[N+]12CCC(CC1)C(OC(=O)C(O)(c1ccccc1)c1ccccc1)C2.[Br-] (centres undefined) | inactive: 0.207 |
| O=C(O)c1ccc2c(c1)nc(Nc1cccc(Cl)c1)c1ccncc12 [cx-4945 (Silmitasertib)] | inactive: 0.656 |
| CCN1/C(=C/C(C)=O)Sc2ccc(OC)cc21 | inactive: 2 |
| CCCCCCCCCCCCCCCCOP(=O)([O-])OCC[N+](C)(C)C [Miltefosine] | inactive: -1.04 |
| Cl.NCCCCCC(=O)O | inactive: 0.476 |
| C#CCN(C)Cc1ccccc1.Cl [Pargyline hydrochloride] | inactive: 2.57 |

| SMILES | cell-cell fusion (z-score) |
| --- | --- |
| CC1(C)C(C=C(Cl)Cl)C1C(=O)OC(C#N)c1cccc(Oc2ccccc2)c1 (centres undefined) | inactive: 1.1 |
| C[N+](C)(CCOc1ccccc1)Cc1ccccc1.O=C([O-])c1cc2ccccc2cc1O | inactive: 1.8 |
| CCCCC[C@H](O)/C=C/[C@H]1[C@H](O)CC(=O)[C@@H]1CCCCCCC(=O)O [Alprostadil] | inactive: 2.4 |
| O=S(=O)(O)O.Oc1cccc2cccnc12 | inactive: 0.971 |
| CC(C)CN(C[C@@H](O)[C@H](Cc1ccccc1)NC(=O)O[C@H]1CO[C@H]2OCC[C@H]21)S(=O)(=O)c1ccc(N)cc1 [Darunavir] | inactive: 1.65 |
| Cn1cnc([N+](=O)[O-])c1Sc1ncnc2nc[nH]c12 [Azathioprine] | inactive: 1.61 |
| O=C(/C=C/c1ccc(O)cc1)c1ccccc1 | inactive: 0.343 |
| N[C@@H](C(=O)N[C@@H]1C(=O)N2C(C(=O)O)=C(Cl)CS[C@H]12)c1ccccc1 | inactive: 2.75 |
| S=c1[nH]cnc2nc[nH]c12 | inactive: 0.536 |
| CN1CCN(C(c2ccccc2)c2ccccc2)CC1 | inactive: 2.09 |
| O=C(N/N=C/c1coc2ccccc2c1=O)c1cccnc1 [STAT5 Inhibitor] | inactive: 1.64 |
| Cl.NO [Hydroxylamine hydrochloride] | inactive: -2.03 |
| COC(=O)CCC(C)C1CCC2C3CC[C@@H]4C[C@H](O)CC[C@]4(C)C3C[C@H](O)[C@]12C (some centres undefined) | inactive: 1.1 |
| NS(=O)(=O)c1cc2c(cc1Cl)NCNS2(=O)=O [Hydrochlorothiazide] | inactive: 3.36 |
| N[C@@H](Cc1c[nH]c2ccc(O)cc12)C(=O)O [5-Hydroxy-L-tryptophan] | inactive: 1.21 |
| Cl.Cl.N=C(N)N | inactive: 1.5 |
| COc1cc2c(cc1OC)-c1cc3ccc(OC)c(OC)c3c[n+]1CC2.O | inactive: 3.96 |
| COC(=O)C1=C(C)NC(C)=C(C(=O)OCCN2CCN(C(c3ccccc3)c3ccccc3)CC2)C1c1cccc([N+](=O)[O-])c1 (centres undefined) | inactive: 1.09 |
| COc1ccc(-c2coc3c4c(c(CC=C(C)C)c(O)c3c2=O)OC(C)(C)C=C4)cc1 | inactive: 1.95 |
| Nc1ccc(N2C(=O)c3ccccc3C2=O)c(Cl)c1 [N-(4-Amino-2-chlorophenyl)phthalimide] | inactive: 2.33 |
| CN(C)c1nc(N(C)C)nc(N(C)C)n1 [Altretamine (Hexalen)] | inactive: 2.32 |
| CC[C@@]1(O)C(=O)OCc2c1cc1n(c2=O)Cc2cc3c(CN(C)C)c(O)ccc3nc2-1 [Topotecan] | inactive: 3.89 |
| Cl.N[C@@H](Cc1cnc[nH]1)C(=O)O.O [L-Histidine monohydrochloride monohydrat] | inactive: 3.12 |
| CCn1cc(C(=O)O)c(=O)c2cc(F)c(N3CCNC(C)C3)c(F)c21.Cl (centres undefined) [Lomefloxacin hydrochloride] | inactive: 2.34 |

Reprinted at random: 5 entries already listed

| SMILES | cell-cell fusion (z-score) |
| --- | --- |
| CN(C)CCc1c[nH]c2ccc(CS(=O)(=O)N3CCCC3)cc12 | inactive: 0.082 |
| O=c1c(O)c(-c2ccc(O)c(O)c2)oc2cc(O)cc(O)c12 | inactive: 1.73 |
| O.O=CN(O)CCCP(=O)(O)O.[Na] [Fosmidomycin sodium salt hydrate] | inactive: 2.73 |
| O=C(/C=C/c1ccc(O)cc1)c1ccccc1 | inactive: 0.343 |
| Nc1ncn([C@@H]2O[C@H](CO)[C@@H](O)[C@H]2O)c(=O)n1 [5-azacytidine] | inactive: 3.15 |
